Article PMC10171440
These are yes or no findings as the source states them, for the method shown. In cells and extracts the contact can be indirect. Some entries that bind do so weakly or less than the wild type.

By UniProt entry, the sequences of proteins in these tests, tags left out.
UniProt Q69YN4: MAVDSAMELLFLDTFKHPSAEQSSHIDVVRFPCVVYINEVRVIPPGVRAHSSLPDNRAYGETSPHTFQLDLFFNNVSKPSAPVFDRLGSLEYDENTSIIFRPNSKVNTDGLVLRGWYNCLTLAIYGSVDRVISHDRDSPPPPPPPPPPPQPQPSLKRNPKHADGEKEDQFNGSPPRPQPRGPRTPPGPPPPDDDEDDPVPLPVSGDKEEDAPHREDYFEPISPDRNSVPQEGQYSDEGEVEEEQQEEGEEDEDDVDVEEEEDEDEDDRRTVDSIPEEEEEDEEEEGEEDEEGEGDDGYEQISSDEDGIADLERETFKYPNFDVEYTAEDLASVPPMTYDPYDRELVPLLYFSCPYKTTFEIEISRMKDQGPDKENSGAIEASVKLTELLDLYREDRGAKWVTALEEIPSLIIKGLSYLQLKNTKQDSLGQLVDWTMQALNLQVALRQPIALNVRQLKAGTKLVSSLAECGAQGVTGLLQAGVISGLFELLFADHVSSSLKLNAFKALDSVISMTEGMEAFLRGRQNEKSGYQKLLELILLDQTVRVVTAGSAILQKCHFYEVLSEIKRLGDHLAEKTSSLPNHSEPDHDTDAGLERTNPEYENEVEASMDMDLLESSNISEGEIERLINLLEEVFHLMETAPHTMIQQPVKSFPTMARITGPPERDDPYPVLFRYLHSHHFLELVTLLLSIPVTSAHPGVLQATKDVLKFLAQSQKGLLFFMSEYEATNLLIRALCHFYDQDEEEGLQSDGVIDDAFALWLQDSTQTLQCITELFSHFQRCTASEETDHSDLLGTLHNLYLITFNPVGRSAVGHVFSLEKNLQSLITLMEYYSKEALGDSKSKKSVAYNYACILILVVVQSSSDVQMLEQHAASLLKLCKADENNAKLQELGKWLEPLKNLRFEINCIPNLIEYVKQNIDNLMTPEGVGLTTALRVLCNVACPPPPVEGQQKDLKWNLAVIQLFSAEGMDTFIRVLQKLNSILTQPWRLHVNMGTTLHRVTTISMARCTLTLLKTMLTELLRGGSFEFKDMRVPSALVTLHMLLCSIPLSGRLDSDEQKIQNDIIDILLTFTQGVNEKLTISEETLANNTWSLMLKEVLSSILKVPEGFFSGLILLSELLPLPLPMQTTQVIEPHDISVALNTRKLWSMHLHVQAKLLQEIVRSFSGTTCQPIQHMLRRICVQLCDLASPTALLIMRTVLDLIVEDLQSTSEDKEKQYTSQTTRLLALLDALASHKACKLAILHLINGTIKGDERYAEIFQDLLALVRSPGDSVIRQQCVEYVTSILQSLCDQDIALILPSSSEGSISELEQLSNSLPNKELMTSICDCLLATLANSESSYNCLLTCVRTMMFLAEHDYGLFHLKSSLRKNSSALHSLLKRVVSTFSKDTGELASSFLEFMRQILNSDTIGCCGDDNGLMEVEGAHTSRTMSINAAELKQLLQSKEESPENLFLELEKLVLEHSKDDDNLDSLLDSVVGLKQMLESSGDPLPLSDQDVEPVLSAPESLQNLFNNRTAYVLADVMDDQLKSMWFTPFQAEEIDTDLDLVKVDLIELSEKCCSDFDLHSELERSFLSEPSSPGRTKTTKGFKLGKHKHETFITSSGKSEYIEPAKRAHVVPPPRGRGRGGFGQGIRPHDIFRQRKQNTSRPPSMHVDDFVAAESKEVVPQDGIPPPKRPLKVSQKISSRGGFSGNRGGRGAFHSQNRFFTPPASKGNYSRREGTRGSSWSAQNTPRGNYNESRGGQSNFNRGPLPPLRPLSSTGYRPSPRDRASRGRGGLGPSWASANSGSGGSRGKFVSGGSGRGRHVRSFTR

Target: T1, ubiquitin-specific peptidases 29 (USP29) (human (endogenous in CRC cells)) (UniProt Q9HBJ7)
T1 sequence: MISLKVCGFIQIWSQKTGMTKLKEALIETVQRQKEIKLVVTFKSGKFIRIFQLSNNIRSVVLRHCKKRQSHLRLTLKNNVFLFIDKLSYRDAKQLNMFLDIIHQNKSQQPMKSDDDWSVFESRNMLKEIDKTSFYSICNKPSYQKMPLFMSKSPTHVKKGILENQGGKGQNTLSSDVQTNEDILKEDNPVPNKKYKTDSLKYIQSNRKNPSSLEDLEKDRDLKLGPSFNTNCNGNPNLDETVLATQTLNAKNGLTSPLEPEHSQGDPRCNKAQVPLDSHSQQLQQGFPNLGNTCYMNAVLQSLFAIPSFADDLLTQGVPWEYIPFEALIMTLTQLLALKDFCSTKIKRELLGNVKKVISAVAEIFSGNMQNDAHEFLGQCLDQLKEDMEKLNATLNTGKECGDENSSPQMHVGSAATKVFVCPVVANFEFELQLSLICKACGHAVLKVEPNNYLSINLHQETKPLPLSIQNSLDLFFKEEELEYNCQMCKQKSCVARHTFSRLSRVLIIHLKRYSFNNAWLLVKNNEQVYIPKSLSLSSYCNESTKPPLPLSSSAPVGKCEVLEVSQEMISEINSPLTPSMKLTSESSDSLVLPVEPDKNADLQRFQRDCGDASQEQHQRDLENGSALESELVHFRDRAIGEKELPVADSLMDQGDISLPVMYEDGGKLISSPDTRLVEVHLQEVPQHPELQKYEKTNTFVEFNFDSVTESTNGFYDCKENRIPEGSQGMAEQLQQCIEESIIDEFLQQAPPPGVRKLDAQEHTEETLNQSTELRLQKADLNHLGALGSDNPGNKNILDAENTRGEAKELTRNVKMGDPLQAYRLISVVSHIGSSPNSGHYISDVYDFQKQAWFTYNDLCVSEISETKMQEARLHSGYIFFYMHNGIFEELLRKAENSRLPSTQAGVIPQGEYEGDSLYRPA
Experiment: co-IP; total protein of CRC cells in RIPA buffer; supernatant incubated with protein A+G agarose beads for 4 h at 4 C with USP29 antibody (IgG antibody as control); precipitate analysed by Western blotting

Substance: Vir-like m6A methyltransferase associated (VIRMA/KIAA1429) (from UniProt Q69YN4 1-1812)
- binding: binds
